Out of some 360,000 compounds screened, about 7,500 (2.1%) were called active. The shares of active, inactive and inconclusive entries below differ from those in the screen. The call rests on the fitted dose curve; in most records, active means well fitted inhibition curve with a large enough effect; inconclusive means small, poorly fitted or top-dose-only effect, or effect the other way; inactive means flat fitted curve, though single readings scatter. A potency beside an inconclusive call is a rough fit, not a confirmed value.
Test: Nrf2 qHTS screen for inhibitors; further: nearly all actives have a fitted effect of over 60% in size
Conditions: A549 ARE-Fluc reporter, luciferase luminescence, 18-24 h; series mostly up to 46 µM
How it was run: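 Reporter: ARE-Fluc in A549. Exposure: 18-24 h, 37 °C, 5% CO2, 5% FBS OPTI-MEM. Readouts: fluorescent cytotoxicity (CellTiter-Fluor), then luminescent Nrf2 signal after BugLite.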
Potency means the concentration at half of the fitted maximal effect.

Row | Structure (SMILES) | Potency
1 | COc1ccc(-c2cc3ccccc3cn2)cc1 | inconclusive: 2.06 µM [activator, full curve, poor fit]
2 | CCN(Cc1ccccc1)S(=O)(=O)c1ccc(C(=O)N(CCCN(C)C)c2nc3cc(C)cc(C)c3s2)cc1 | inconclusive: 29.1 µM [falling, single point]
3 | FC(F)(F)c1cc(-c2ccccc2)nc(NC2CCCC2)n1 | inconclusive: 18.4 µM [falling, partial curve, poor fit]
4 | c1ccc(CN2CCN(C3=Nc4cccc5cccc3c45)CC2)cc1 | inconclusive: 16.4 µM [activator, single point]
5 | CC1CCCCC1NC(=O)C1CCCN1S(=O)(=O)c1cccc2nsnc12 (configuration not stated) | inconclusive: 0.58 µM [falling, full curve, poor fit]
6 | COc1ccc(CC(=O)OCC(=O)N2N=C(c3ccccc3)CC2c2ccc(OC)cc2)cc1 (configuration not stated) | inactive
7 | O=C(Cn1ncc2c3ccccc3n(Cc3cccc(Cl)c3)c2c1=O)NCc1cccs1 | inactive
8 | COc1ccccc1N1CCN(C(=O)/C=C/c2ccc3c(c2)OCO3)CC1 | inconclusive: 20.6 µM [falling, partial curve, poor fit]
9 | CCn1ncc(C2=NOC(C(=O)Nc3cccc(O)c3)C2)c1C (configuration not stated) | inconclusive: 0.0052 µM [falling, full curve, poor fit]
10 | CN(C)CCN1C(=O)c2cccc3cc([N+](=O)[O-])cc(c23)C1=O | active: 1.64 µM
11 | Cc1cc(N/N=C/c2ccc(Cl)cc2Cl)nc(NCc2ccccc2)n1 | inconclusive: 29.1 µM [falling, single point]
12 | CCN(CC)S(=O)(=O)c1cc(NC(=O)CSCc2c(C)noc2C)ccc1C | inconclusive: 18.4 µM [falling, partial curve]
13 | CC(=O)c1sc(NCc2ccc(C)cc2)nc1C | inconclusive: 23.1 µM [activator, partial curve]
14 | Cc1nc2cc(F)ccc2n1C1CCN(C(=O)c2c(F)cccc2F)CC1 | inconclusive: 16.4 µM [falling, single point]
15 | COc1ccc(CN2CC(=O)N(c3cc(Cl)ccc3OC)C2=S)cc1OC | inconclusive: 18.4 µM [falling, partial curve, poor fit]
16 | CCCc1ccc(-c2ccc(C(=O)Oc3ccc(OCC)cc3)cc2)nc1 | inconclusive: 2.31 µM [activator, full curve]
17 | NS(=O)(=O)c1cccc(NC(=O)COC(=O)CSCc2ccccc2)c1 | inconclusive: 18.4 µM [activator, single point]
18 | COc1cc(/C=C/c2ccc3cccc(O)c3n2)cc(Cl)c1OC | inconclusive: 29.1 µM [activator, single point]
19 | Cc1nn(CC(=O)N/N=C/c2cccs2)c(C)c1[N+](=O)[O-] | inactive
20 | Cc1ccc(NC(=O)c2cc3ccccc3cc2O)cc1 | inconclusive: 29.1 µM [falling, single point]
21 | COc1cccc(-c2nc(-c3ccc(C(=O)O)cc3)no2)c1 | inconclusive: 0.651 µM [activator, full curve]
22 | CCCCCc1nc(N)c(C#N)c(-c2ccco2)c1CCCC | inactive
23 | CCSc1nnc(-c2sc3nnc(-c4ccccc4)c(-c4ccccc4)c3c2N)o1 | inconclusive: 18.4 µM [falling, single point]

Row | Structure (SMILES) | Potency
24 | O=C(Nc1ccc(F)cc1F)Nc1csc2ccccc12 | inconclusive: 23.1 µM [falling, single point]
25 | COc1ccc(Nc2cc(C)c3ccccc3n2)cc1 | inconclusive: 29.1 µM [activator, single point]
26 | Cc1ccc(S(=O)(=O)N2CCCCC2)cc1NC(=O)c1cccs1 | inconclusive: 29.1 µM [falling, single point]
27 | Cc1cccc(C)c1NC(=O)CCCN1C(=O)C(c2ccccc2)Oc2cccnc21 (configuration not stated) | inactive
28 | CC(O)CN1C(=O)C(CC(=O)Nc2ccc(Cl)cc2)SC1=Nc1ccccc1 (configuration not stated) | inconclusive: 16.4 µM [falling, single point]
29 | CCOc1ccc(C)cc1S(=O)(=O)N1CCCCC1 | inconclusive: 1.64 µM [falling, partial curve, poor fit]
30 | O=C(CN1C(=O)NC2(CCOc3ccccc32)C1=O)NCc1ccccc1 (configuration not stated) | inactive
31 | O=C(NC(=S)NC12CC3CC(CC(C3)C1)C2)c1ccc(F)cc1 | inconclusive: 9.2 µM [activator, partial curve]
32 | COc1ccc(CNC(=O)CSc2nc(-c3ccc(OC)c(OC)c3)cc(C(F)(F)F)n2)cc1 | inactive
33 | CC(CNC(=O)c1ccc(CSc2nc3ccncc3n2Cc2ccccc2)cc1)c1ccccc1 (configuration not stated) | inconclusive: 20.6 µM [falling, single point]
34 | CCC(=O)NNC(=S)NC(=O)c1ccc(C)cc1 | inconclusive: 7.31 µM [falling, partial curve]
35 | Cc1ccc(C)c(N2CCN(C(=O)c3cccn4c(=O)c5sccc5nc34)CC2)c1 | inconclusive: 20.6 µM [activator, partial curve]
36 | O=C(/C=C/c1ccccc1[N+](=O)[O-])NCc1ccccc1Cl | inconclusive: 3.66 µM [falling, partial curve, poor fit]
37 | COc1ccccc1N1CCN(c2ccc(-c3ccccc3)nn2)CC1 | inconclusive: 0.92 µM [activator, full curve, poor fit]
38 | CC(C)OC(=O)CNc1n[nH]c(=S)[nH]c1=O | inactive
39 | CC(C)(C)c1ccc(/C=C2/SC(N3CCCC3)=NC2=O)cc1 | inconclusive: 23.1 µM [falling, single point]
40 | Cc1ccc(Cn2c(=N)n(CC(O)c3ccco3)c3ccccc32)cc1 (configuration not stated) | inconclusive: 29.1 µM [falling, partial curve, poor fit]
41 | Cc1c(Cl)cccc1Nc1ncccc1C(=O)O | inconclusive: 11.6 µM [activator, partial curve, poor fit]
42 | O=S(=O)(c1ccc2nc(NCc3ccccc3Cl)ccc2c1)N1CCCCC1 | inconclusive: 20.6 µM [falling, partial curve, poor fit]
43 | CCC1(c2ccc(Cl)cc2)NC(=O)N(Cc2ccc(C(=O)OC)cc2)C1=O (configuration not stated) | inactive
44 | O=C(c1ccccc1NS(=O)(=O)c1ccc(Br)cc1)N1CCOCC1 | inactive
45 | O=C(O)CC(CC(=O)N1CCOCC1)c1ccccc1 (configuration not stated) | inconclusive: 0.0046 µM [falling, full curve, poor fit]
46 | Cc1cc(NC(=O)CSc2nc3ccccc3n2CCC#N)no1 | inconclusive: 6.51 µM [falling, partial curve, poor fit]

Row | Structure (SMILES) | Potency
47 | CCCCCCCCNC(=O)c1cccnc1SCC(=O)Nc1ccc(OC)cc1OC | inconclusive: 18.4 µM [falling, single point]
48 | Cc1cc2oc3c(c(=O)c2cc1C)C1(C(=O)N(C)c2ccccc21)N(CCO)C3=O (configuration not stated) | inactive
49 | COc1ccccc1C(=O)N/N=C/c1ccc(Cl)s1 | inconclusive: 14.6 µM [activator, partial curve, poor fit]
50 | O=C(Cn1cnc2cc([N+](=O)[O-])ccc2c1=O)Nc1cccc(S(=O)(=O)N2CCOCC2)c1 | inactive
51 | O=C(Nc1ccccc1Br)C(Cc1ccccc1)NS(=O)(=O)c1cccc2nsnc12 (configuration not stated) | inconclusive: 20.6 µM [falling, single point]
52 | CN=Cc1nc(-c2ccccc2)oc1O | inconclusive: 14.6 µM [activator, partial curve]
53 | COc1ccccc1/C=C/C(=O)c1cc(Br)ccc1OC(=O)c1ccco1 | active: 25.9 µM
54 | CC(=O)c1ccc(NC(=O)c2ccc(-c3ccc(Cl)cc3)o2)cc1 | inconclusive: 6.51 µM [activator, single point]
55 | COc1ccccc1NS(=O)(=O)c1ccc(C(=O)N2CCCC(C(F)(F)F)C2)cc1 (configuration not stated) | active: 23.1 µM
56 | COC(=O)c1ccc(N=C2S/C(=C\c3cc(C)n(-c4cccnc4)c3C)C(=O)N2C)cc1 | active: 25.9 µM
57 | CC(C)CNC(=O)c1nn(Cc2ccccc2)c(=O)c2ccccc12 | inconclusive: 29.1 µM [activator, single point]
58 | Nc1ccc2c(c1)Cc1cc(Cl)c(Cl)cc1-2 | inconclusive: 14.6 µM [activator, partial curve]
59 | CCCc1nnc(NC(=O)c2nc(S(=O)(=O)Cc3cccc(C)c3)ncc2Cl)s1 | inactive
60 | c1ccc(-n2ncc3c(N4CCCC4)ncnc32)cc1 | inconclusive: 0.13 µM [activator, full curve]
61 | CCOC(=O)c1ccc(NC(=O)NCCOCCn2c(=O)oc3ccccc32)cc1 | inconclusive: 16.4 µM [falling, partial curve, poor fit]
62 | CSCCC(NC(=O)c1ccc([N+](=O)[O-])cc1Cl)C(=O)OCC(=O)NCCCc1ccccc1 (configuration not stated) | inactive
63 | CCOc1ccccc1-c1noc(CCC(=O)Nc2cccnc2)n1 | inconclusive: 3.66 µM [falling, partial curve, poor fit]
64 | COc1cc(C(=O)OCCNC(=O)c2ccccc2)cc(OC)c1OC | inconclusive: 0.326 µM [falling, full curve, poor fit]
65 | Cc1cc(C)nc(SCC(=O)N/N=C/c2cccn2-c2cccc(C(F)(F)F)c2)n1 | inconclusive: 29.1 µM [falling, single point]
66 | NC(N)=NN=C(c1ccc(F)cc1)c1ccc(C(F)(F)F)cc1 | inconclusive: 1.84 µM [falling, partial curve, poor fit]
67 | Cc1ccc(NC(=O)c2cc(C)n(-c3cccc(C)c3)c2C)cc1 | inconclusive: 0.651 µM [activator, partial curve, poor fit]

A few values from above.
COc1ccccc1NS(=O)(=O)c1ccc(C(=O)N2CCCC(C(F)(F)F)C2)cc1 (configuration not stated) | Potency: active: 23.1 µM
O=C(Nc1ccccc1Br)C(Cc1ccccc1)NS(=O)(=O)c1cccc2nsnc12 (configuration not stated) | Potency: inconclusive: 20.6 µM [falling, single point]
COc1cc(C(=O)OCCNC(=O)c2ccccc2)cc(OC)c1OC | Potency: inconclusive: 0.326 µM [falling, full curve, poor fit]
O=C(Cn1cnc2cc([N+](=O)[O-])ccc2c1=O)Nc1cccc(S(=O)(=O)N2CCOCC2)c1 | Potency: inactive
